Assay results taken from doi:10.1101/2020.06.18.158576 (bioRxiv, 2020).
Where a chain is given by its changes, count along the chain named. In names and notes the source's numbering stands. These are yes or no findings as the source states them, for the method shown. Some binding calls cover weakened binding; strength is not graded here.

T1: KaiB (unlabeled) (Synechococcus elongatus) (UniProt Q79PF5)
T1 sequence: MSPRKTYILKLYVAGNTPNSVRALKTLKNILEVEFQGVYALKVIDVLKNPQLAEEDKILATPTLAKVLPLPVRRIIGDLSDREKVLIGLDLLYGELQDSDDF

T2: CikA (unlabeled) (Synechococcus elongatus) (UniProt Q9KHI5)
T2 sequence: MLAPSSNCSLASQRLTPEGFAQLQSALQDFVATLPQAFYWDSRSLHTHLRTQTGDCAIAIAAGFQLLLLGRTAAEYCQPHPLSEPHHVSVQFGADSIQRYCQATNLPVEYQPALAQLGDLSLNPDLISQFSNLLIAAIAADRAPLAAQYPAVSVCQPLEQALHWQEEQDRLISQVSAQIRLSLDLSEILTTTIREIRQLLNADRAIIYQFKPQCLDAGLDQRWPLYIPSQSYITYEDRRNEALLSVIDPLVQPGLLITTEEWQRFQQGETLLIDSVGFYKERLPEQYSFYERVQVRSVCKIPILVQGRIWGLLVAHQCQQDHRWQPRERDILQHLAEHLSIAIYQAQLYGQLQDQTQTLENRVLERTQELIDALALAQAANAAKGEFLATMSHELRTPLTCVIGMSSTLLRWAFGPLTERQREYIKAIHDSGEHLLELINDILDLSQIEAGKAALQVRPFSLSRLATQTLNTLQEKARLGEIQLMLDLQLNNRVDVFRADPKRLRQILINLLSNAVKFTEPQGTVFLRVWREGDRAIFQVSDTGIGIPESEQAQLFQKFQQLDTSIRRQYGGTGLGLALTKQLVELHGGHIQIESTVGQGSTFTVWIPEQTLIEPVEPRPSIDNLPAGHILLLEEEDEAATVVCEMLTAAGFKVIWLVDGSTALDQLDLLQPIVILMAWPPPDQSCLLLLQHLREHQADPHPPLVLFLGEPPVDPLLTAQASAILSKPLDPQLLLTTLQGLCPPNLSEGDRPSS

B1: CikA, fluorescently labeled probe (enzyme, UniProt Q9KHI5 1-754)
chain: T2 sequence
modifications: fluorescently labeled using sortase-mediated ligation
B2: RpaA R121Q mutant (natural protein)
chain: MKPRILVIDDDSAILELVAVNLEMSGYDVRKAEDGIKGQALAVQLVPDLIMLDLMLPRVDGFTVCQRLRRDERTAEIPVLMLTALGQTQDKVEGFNAGADDYLTKPFEVEEMLARVRALLQRTDRIPHAARHSEILSYGPLTLIPERFEAIWFNRTVKLTHLEFELLHCLLQRHGQTVAPSEILKEVWGYDPDDDIETIRVHIRHLRTKLEPDPRHPRYIKTVYGAGYCLELPAETELHQHADQFPSAS
B3: RpaA, fluorescently labeled probe (natural protein)
chain: B2 chain with Q121R
modifications: fluorescently labeled using sortase-mediated ligation

Legend:
[1] = molecular target: T1, KaiB (unlabeled) (Synechococcus elongatus); assay: fluorescence polarisation
[2] = molecular target: T2, CikA (unlabeled) (Synechococcus elongatus); assay: fluorescence polarisation

Binder	binding [1]	binding [2]
B1	binds	–
B2	–	binds
B3	–	binds
